Test results as given in the supplement of paper PMC10849652.
Some of the results follow.

Chains of the proteins cited; added tags and fusions are not shown. Lines headed by an entry give the natural chain unless they say otherwise; changes in a name come on top.
UniProt Q9H2K0, whole entry, looked up: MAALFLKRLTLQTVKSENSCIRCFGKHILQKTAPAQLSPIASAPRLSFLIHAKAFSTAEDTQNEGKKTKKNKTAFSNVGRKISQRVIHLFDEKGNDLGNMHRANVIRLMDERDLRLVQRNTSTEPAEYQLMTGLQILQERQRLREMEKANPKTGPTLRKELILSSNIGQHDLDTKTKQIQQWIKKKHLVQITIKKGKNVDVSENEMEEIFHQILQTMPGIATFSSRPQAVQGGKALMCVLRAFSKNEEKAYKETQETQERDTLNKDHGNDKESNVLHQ
UniProt P00414, whole entry, looked up: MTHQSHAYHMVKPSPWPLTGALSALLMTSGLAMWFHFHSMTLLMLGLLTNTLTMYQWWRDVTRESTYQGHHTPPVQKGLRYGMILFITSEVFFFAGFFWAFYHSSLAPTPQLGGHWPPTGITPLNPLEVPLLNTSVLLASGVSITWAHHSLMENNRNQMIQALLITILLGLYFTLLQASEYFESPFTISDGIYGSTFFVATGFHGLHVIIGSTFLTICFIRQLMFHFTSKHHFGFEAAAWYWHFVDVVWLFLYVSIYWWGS
UniProt O43795: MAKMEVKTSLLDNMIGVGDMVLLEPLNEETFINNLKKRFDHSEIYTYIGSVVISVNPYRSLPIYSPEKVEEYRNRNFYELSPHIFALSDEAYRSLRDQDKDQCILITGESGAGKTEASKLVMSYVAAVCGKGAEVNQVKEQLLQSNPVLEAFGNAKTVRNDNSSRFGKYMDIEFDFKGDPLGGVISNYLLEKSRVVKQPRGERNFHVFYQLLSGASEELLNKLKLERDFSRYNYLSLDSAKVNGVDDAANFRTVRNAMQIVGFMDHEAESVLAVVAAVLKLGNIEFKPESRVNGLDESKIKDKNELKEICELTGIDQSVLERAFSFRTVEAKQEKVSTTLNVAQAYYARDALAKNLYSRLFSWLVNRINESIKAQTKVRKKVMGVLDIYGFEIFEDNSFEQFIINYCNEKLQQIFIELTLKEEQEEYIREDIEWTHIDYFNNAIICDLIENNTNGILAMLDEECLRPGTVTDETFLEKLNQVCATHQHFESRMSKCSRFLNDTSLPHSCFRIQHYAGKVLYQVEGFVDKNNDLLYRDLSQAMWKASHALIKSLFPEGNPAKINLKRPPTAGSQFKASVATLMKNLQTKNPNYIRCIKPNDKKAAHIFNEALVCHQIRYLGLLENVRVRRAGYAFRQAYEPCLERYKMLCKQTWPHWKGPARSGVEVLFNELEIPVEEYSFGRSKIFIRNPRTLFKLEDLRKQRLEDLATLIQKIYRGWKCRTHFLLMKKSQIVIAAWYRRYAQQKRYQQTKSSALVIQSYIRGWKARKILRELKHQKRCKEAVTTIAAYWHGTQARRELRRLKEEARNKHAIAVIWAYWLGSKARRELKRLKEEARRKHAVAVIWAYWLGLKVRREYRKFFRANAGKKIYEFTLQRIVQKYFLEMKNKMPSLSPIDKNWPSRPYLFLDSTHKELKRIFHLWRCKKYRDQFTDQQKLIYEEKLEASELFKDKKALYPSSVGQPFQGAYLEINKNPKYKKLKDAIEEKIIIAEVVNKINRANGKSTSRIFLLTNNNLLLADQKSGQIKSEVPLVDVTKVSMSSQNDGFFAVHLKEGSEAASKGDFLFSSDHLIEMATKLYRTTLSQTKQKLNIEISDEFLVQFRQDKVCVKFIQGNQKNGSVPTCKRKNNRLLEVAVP
UniProt Q68DK7: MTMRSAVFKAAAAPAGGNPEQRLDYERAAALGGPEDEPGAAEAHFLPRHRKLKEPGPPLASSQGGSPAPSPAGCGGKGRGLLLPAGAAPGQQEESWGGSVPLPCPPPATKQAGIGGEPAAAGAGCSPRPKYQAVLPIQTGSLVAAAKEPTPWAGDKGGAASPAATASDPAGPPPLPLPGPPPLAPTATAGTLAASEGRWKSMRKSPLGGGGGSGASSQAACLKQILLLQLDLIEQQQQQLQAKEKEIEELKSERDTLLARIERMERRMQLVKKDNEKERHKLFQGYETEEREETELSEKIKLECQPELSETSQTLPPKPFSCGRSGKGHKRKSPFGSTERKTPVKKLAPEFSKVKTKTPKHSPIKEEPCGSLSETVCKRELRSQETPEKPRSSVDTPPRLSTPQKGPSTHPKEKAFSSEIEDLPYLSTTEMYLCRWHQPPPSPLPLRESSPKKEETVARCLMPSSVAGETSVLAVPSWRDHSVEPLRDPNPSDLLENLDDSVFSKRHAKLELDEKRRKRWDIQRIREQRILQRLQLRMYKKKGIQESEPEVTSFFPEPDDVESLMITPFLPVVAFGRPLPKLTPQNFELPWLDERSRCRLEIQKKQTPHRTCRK
UniProt O94832: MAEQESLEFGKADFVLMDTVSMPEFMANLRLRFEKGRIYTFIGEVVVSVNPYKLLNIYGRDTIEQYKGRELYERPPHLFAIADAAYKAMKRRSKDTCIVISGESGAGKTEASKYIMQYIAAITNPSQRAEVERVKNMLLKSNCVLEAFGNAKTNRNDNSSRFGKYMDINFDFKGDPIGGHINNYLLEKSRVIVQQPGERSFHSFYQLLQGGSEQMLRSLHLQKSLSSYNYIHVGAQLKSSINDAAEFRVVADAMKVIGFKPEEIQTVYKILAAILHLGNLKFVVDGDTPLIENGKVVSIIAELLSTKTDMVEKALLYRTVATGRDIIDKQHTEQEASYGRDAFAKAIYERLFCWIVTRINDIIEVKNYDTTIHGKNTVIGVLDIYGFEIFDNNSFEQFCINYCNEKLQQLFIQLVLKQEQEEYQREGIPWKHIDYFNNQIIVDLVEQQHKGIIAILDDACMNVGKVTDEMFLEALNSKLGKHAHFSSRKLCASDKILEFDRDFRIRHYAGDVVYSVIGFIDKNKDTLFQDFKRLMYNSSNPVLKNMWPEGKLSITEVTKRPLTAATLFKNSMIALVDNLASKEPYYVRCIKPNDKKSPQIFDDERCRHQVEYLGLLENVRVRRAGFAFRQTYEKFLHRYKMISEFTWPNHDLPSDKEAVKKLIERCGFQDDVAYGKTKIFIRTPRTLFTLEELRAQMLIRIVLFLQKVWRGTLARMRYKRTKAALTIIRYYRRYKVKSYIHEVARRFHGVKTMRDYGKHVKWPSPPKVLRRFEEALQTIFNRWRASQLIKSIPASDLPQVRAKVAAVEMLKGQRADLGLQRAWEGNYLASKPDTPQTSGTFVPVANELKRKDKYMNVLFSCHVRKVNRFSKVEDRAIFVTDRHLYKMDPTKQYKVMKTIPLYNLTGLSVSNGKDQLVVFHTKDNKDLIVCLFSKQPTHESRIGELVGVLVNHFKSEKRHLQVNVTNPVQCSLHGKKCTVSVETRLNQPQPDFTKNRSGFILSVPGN
UniProt P26038, whole entry, looked up: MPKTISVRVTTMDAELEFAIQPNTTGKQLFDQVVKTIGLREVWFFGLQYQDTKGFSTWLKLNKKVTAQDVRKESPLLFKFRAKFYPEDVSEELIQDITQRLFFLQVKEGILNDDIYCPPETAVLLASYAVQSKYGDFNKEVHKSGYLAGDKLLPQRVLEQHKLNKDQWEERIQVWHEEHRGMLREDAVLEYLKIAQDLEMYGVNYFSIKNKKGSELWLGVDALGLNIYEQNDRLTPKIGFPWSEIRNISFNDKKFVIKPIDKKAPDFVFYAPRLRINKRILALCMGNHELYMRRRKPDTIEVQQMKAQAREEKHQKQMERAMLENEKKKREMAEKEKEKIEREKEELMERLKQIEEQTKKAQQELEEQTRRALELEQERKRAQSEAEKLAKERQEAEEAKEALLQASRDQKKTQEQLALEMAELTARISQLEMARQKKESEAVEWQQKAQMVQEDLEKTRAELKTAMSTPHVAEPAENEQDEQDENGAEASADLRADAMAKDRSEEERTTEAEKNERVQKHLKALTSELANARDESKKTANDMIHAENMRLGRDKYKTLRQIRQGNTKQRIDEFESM
UniProt Q99836, whole entry, looked up: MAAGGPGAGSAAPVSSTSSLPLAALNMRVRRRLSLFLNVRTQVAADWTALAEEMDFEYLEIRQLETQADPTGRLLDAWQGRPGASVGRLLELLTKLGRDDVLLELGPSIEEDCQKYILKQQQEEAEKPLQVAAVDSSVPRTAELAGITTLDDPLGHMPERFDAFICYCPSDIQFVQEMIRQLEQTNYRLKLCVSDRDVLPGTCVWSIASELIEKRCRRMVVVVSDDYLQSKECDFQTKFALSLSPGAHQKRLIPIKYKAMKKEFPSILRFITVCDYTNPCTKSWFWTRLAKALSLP
UniProt Q9NZJ7, whole entry, looked up: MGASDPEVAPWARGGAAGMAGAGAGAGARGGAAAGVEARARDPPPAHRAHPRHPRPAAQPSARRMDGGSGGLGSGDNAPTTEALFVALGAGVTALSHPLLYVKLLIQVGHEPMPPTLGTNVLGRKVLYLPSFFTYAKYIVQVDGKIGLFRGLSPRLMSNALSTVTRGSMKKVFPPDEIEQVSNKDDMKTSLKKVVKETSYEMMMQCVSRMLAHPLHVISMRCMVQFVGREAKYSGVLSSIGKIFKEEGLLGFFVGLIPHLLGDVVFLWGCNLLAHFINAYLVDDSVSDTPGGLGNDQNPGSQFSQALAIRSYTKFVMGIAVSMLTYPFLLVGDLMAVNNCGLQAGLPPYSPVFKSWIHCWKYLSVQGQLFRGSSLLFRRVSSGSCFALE
UniProt Q96H55, whole entry, looked up: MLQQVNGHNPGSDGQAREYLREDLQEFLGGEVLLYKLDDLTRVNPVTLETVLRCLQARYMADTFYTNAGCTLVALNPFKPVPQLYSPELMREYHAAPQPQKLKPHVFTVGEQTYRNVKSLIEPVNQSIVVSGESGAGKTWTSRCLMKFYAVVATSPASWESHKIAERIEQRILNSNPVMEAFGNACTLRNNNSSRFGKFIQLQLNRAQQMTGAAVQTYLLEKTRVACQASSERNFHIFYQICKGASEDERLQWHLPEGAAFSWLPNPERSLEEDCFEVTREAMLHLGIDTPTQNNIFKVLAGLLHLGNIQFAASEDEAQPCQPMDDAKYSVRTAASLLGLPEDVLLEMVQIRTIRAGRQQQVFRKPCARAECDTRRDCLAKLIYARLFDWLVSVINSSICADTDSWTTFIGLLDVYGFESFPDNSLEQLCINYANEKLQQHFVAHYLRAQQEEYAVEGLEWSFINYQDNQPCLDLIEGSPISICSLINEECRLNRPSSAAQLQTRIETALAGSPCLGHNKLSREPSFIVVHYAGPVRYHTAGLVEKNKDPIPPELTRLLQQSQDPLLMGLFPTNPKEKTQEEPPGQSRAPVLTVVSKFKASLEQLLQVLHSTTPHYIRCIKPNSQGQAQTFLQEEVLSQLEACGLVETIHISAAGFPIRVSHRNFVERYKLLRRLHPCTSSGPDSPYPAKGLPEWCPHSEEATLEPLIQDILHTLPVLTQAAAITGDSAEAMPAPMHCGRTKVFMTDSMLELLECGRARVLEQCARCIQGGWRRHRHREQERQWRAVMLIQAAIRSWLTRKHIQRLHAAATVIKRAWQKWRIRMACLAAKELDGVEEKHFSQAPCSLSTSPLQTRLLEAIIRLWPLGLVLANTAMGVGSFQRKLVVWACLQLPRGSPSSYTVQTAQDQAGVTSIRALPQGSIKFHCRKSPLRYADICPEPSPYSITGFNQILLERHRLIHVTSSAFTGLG
UniProt Q9H903: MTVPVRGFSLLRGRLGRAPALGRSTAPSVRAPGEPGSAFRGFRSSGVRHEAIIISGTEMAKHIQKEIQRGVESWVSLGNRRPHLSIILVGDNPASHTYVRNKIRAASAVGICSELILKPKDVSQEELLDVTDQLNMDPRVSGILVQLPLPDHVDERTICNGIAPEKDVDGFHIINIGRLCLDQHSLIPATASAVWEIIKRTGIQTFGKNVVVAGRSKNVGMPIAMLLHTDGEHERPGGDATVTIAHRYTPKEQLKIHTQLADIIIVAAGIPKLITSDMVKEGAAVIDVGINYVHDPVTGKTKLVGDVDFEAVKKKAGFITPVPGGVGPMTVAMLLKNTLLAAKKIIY
UniProt Q6P1R3: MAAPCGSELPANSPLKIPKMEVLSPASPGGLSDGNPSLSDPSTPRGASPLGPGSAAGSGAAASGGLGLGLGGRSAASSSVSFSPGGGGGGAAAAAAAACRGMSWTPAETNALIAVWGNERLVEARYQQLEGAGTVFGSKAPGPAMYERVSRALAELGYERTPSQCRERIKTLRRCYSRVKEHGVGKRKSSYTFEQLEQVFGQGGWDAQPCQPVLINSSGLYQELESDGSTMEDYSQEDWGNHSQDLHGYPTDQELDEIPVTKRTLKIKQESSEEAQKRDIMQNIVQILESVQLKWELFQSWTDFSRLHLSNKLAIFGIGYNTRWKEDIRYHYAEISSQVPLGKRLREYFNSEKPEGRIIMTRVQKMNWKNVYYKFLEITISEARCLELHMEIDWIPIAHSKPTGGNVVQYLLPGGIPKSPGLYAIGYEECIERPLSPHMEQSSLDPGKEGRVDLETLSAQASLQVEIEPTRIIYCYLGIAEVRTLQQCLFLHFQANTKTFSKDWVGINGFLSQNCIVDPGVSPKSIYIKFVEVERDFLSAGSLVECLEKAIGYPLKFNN

What follows are targets tested with CC1=C2C(=CC=C1)N=C(N(C2=O)C3=CC=CC=C3C)CN4C=NC5=C(N=CN=C54)N (assay: log2 fold change, soluble protein after heating vs DMSO (PISA); higher = thermal stabilisation; K562 cells, 10 uM, 30 min; active = over 0.2 and 3.5 SD of the protein, either way, in both replicates (recomputed)).
Summary of the method: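 Quantification of soluble protein used TMTpro 16plex LC-MS/MS, with channel sums equalised. Samples were the supernatant after 21,000xg for 90 min of pooled aliquots from K562 cells (2×10^6 cells/mL) treated with 10 μM compound for 30 min, heated for 3 min over 48°C-58°C, and extracted in PBS with 0.5% NP-40 at 4°C. Values, from duplicates, describe thermal stability against control samples on a log2 fold-change scale.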
For MTIF3 (UniProt Q9H2K0), the log2 fold change was inactive: -0.091.
MVB12A (UniProt Q96EY5) was tested, and the log2 fold change was inactive: 0.265.
MYO1C (UniProt O00159) was tested, and the log2 fold change was inactive: 0.109.
In the case of MT-CO3 (UniProt P00414), the log2 fold change is reported as inactive: 0.347.
MRPL58 (UniProt Q14197) was tested, and the log2 fold change was inactive: -0.046.
In the case of MYO1B (UniProt O43795), the log2 fold change is reported as inactive: -0.011.
For MSL1 (UniProt Q68DK7), the log2 fold change was inactive: 0.17.
With MYO1D (UniProt O94832) the log2 fold change was inactive: -0.088.
MSN (UniProt P26038) was tested, and the log2 fold change was inactive: -0.019.
For MYD88 isoform 6 (UniProt Q99836), the log2 fold change was inactive: 0.079.
For MTHFD1L (UniProt B7ZM99), the log2 fold change was inactive: 0.257.
With MTURN (UniProt Q8N3F0) the log2 fold change was inactive: -0.198.
With MRPS23 (UniProt Q9Y3D9) the log2 fold change was inactive: 0.016.
With MTCH1 (UniProt Q9NZJ7) the log2 fold change was inactive: 0.009.
In the case of MTOR (UniProt P42345), the log2 fold change is reported as inactive: 0.092.
For MTFMT (UniProt Q96DP5), the log2 fold change was inactive: 0.004.
With MYO19 (UniProt Q96H55) the log2 fold change was inactive: 0.146.
MTHFD2L (UniProt Q9H903) was tested, and the log2 fold change was inactive: 0.053.
In the case of MTCH2 (UniProt E9PIE4), the log2 fold change is reported as inactive: 0.013.
With MSANTD2 (UniProt Q6P1R3) the log2 fold change was inactive: 0.06.
MYO9A isoform 4 (UniProt B2RTY4) was tested, and the log2 fold change was inactive: 0.048.
For MRPS26 (UniProt Q9BYN8), the log2 fold change was inactive: -0.012.
MRPL57 (UniProt Q9BQC6) was tested, and the log2 fold change was inactive: -0.07.
